Laboratory results: paper PMC12266115
No constants are given. Whether binding was seen depends on the method and setting. Some results given as binding are weak or reduced against the parent protein; the word gives no strength. Where a sequence is shown, tags or fusion partners need not be part of it.

Molecular target: T1, EDS1 full length, Gal4 BD fusion (A. thaliana) (UniProt Q9SU72)
T1 sequence: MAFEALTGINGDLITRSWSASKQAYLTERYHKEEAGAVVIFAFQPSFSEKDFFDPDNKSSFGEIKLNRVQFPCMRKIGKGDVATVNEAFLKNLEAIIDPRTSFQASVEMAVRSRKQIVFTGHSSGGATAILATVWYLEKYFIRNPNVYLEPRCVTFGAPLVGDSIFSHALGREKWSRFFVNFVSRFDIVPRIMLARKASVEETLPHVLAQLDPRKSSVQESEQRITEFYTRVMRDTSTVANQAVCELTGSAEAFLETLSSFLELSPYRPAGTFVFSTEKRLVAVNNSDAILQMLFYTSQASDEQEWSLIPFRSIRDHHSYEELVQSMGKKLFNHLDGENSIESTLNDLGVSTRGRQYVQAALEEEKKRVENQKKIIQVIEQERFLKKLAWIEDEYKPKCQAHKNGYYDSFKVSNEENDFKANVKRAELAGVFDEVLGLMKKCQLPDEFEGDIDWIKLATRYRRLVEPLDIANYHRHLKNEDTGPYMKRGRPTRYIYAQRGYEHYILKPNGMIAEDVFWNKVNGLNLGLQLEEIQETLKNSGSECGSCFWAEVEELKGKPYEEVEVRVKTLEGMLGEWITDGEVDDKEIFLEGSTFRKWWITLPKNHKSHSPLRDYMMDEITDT
Assay: two-hybrid; S. cerevisiae AH109, pDEST-GBKT7 (BD) and pDEST-GADT7 (AD) fusions; growth on SD-LWH with 5 mM 3-amino-1,2,4-triazole and on SD-LWHA, 28°C, 5 days

B1: PAD4 full length, Gal4 AD fusion (protein, UniProt Q9S745 1-541)
chain: MDDCRFETSELQASVMISTPLFTDSWSSCNTANCNGSIKIHDIAGITYVAIPAVSMIQLGNLVGLPVTGDVLFPGLSSDEPLPMVDAAILKLFLQLKIKEGLELELLGKKLVVITGHSTGGALAAFTALWLLSQSSPPSFRVFCITFGSPLLGNQSLSTSISRSRLAHNFCHVVSIHDLVPRSSNEQFWPFGTYLFCSDKGGVCLDNAGSVRLMFNILNTTATQNTEEHQRYGHYVFTLSHMFLKSRSFLGGSIPDNSYQAGVALAVEALGFSNDDTSGVLVKECIETATRIVRAPILRSAELANELASVLPARLEIQWYKDRCDASEEQLGYYDFFKRYSLKRDFKVNMSRIRLAKFWDTVIKMVETNELPFDFHLGKKWIYASQFYQLLAEPLDIANFYKNRDIKTGGHYLEGNRPKRYEVIDKWQKGVKVPEECVRSRYASTTQDTCFWAKLEQAKEWLDEARKESSDPQRRSLLREKIVPFESYANTLVTKKEVSLDVKAKNSSYSVWEANLKEFKCKMGYENEIEMVVDESDAMET
  binding: binds

B2: SAG101 full length, Gal4 AD fusion (protein, UniProt Q4F883 1-537)
chain: MESSSSLKGSALGKLVVTSGLLHSSWSKILEIHNPPYSNHDPGLQVSKKKKDSGLEFQIHREEKFTLVVFSAPPICRSSSSDSTLLHVKDKENPFPFLCSENNPSFSLHTPAFNLFTSASTSLTYLKSELLQTLKSEKPVIITGAALGGSVASLYTLWLLETIEPTLKRPLCITFGSPLIGDASLQQILENSVRNSCFLHVVSAQTRIKMDFFKPFGTFLICFDSGCVCIEDHVAVTELLNGVHDSGLVDYSQVLNRLDQSMLSLADSRLIPEDVIKGIEKRAEMKNLRFDMMFKKLNDMKISMAYIEWYKKKCKEVKIGYYDRFKTQLAFPSKEFDINIKNHHKSELNRFWKSVVEEVERRPQSDASILKRRFLFSGNNYRRMIEPLDIAEYYLEGRKEYRTTGRSHHYVMLEKWFGMESILIEKERCKKRDLSDLLTFDSCFWAEVEDSLIVINQLNTTVGMRDDVREVLTRKLVEFEGYVWEIITKREVSPEIFLEESSFMKWWKEYKKIKGFNSSYLTEFMNTRKYESYGKSQ
  binding: binds
